Results deposited as PubChem BioAssay AID686938 (Drosophila RNAi Screening Center, 2013)
In all, the deposit lists about 23,000 reagents; shown is an unselected part of those with a known target gene and a result. Over the whole deposit, 75 (0.33%) got an active call. 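Raw plate signals without normalisation; calls rest on plate z-scores that were not deposited; ratio present for only 364 wells.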 Not stated in the record: the dose of the treatment.

Assay: 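Fly genes required for calcium entry once internal stores are emptied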 (primary screen)
Cell system: Drosophila S2R+ cells
Reagent: long dsRNA against Drosophila genes, about 0.25 µg dsRNA per well, roughly 10,000 cells
Timing: 5 days of knock-down before the calcium assay
Challenge: thapsigargin (SERCA pump blocker) to empty calcium stores; entry signal taken 4 min after adding it
Detection: 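Per-well fluo-4 fluorescence in two replicates, unnormalised, measured in resting cells and 4 min after store depletion by the SERCA blocker thapsigargin; ratio of the two present in few wells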
Reading the numbers: calcium entry signal: higher = stronger calcium signal after store depletion; resting calcium signal: higher = higher resting calcium signal
Units: calcium entry signal in fluorescence units; resting calcium signal in fluorescence units
Call rule: 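Hit if the duplicate-averaged plate z-score for entry over resting signal is under −3; wells with weak total dye signal (Fmax z < −2) or more than 5 off-targets removed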
Meaning of the calls: active = strongly reduced calcium entry; inactive = no strong reduction

{"target":"CG14963","DRSC id":"DRSC08422","calcium entry signal, replicate 1":3.11e7,"calcium entry signal, replicate 2":3.40e7,"resting calcium signal, replicate 1":1.60e7,"resting calcium signal, replicate 2":1.52e7,"Call":"inactive"}
{"target":"CG15882","DRSC id":"DRSC19735","calcium entry signal, replicate 1":5.50e7,"calcium entry signal, replicate 2":4.54e7,"resting calcium signal, replicate 1":2.43e7,"resting calcium signal, replicate 2":1.92e7,"Call":"inactive"}
{"target":"CG14613","DRSC id":"DRSC20625","calcium entry signal, replicate 1":2.90e7,"calcium entry signal, replicate 2":3.53e7,"resting calcium signal, replicate 1":1.55e7,"resting calcium signal, replicate 2":1.60e7,"Call":"inactive"}
{"target":"CG6357","DRSC id":"DRSC06979","calcium entry signal, replicate 1":3.36e7,"calcium entry signal, replicate 2":2.87e7,"resting calcium signal, replicate 1":1.52e7,"resting calcium signal, replicate 2":1.45e7,"Call":"inactive"}
{"target":"CG6204","DRSC id":"DRSC15991","calcium entry signal, replicate 1":3.70e7,"calcium entry signal, replicate 2":3.46e7,"resting calcium signal, replicate 1":1.99e7,"resting calcium signal, replicate 2":1.60e7,"Call":"inactive"}
{"target":"CG31871","DRSC id":"DRSC02567","calcium entry signal, replicate 1":3.21e7,"calcium entry signal, replicate 2":4.54e7,"resting calcium signal, replicate 1":1.81e7,"resting calcium signal, replicate 2":1.93e7,"Call":"inactive"}
{"target":"CG31871","DRSC id":"DRSC02571","calcium entry signal, replicate 1":3.56e7,"calcium entry signal, replicate 2":4.19e7,"resting calcium signal, replicate 1":1.88e7,"resting calcium signal, replicate 2":1.85e7,"Call":"inactive"}
{"target":"ATbp","DRSC id":"DRSC20906","calcium entry signal, replicate 1":3.80e7,"calcium entry signal, replicate 2":5.12e7,"resting calcium signal, replicate 1":2.42e7,"resting calcium signal, replicate 2":2.36e7,"Call":"inactive"}
{"target":"CG9920","DRSC id":"DRSC16578","calcium entry signal, replicate 1":2.96e7,"calcium entry signal, replicate 2":4.32e7,"resting calcium signal, replicate 1":1.53e7,"resting calcium signal, replicate 2":5.78e7,"Call":"inactive"}
{"target":"nAChRalpha4","DRSC id":"DRSC11925","calcium entry signal, replicate 1":2.14e7,"calcium entry signal, replicate 2":3.50e7,"resting calcium signal, replicate 1":1.20e7,"resting calcium signal, replicate 2":1.59e7,"Call":"inactive"}
{"target":"nAChRalpha4","DRSC id":"DRSC11929","calcium entry signal, replicate 1":2.34e7,"calcium entry signal, replicate 2":2.75e7,"resting calcium signal, replicate 1":1.34e7,"resting calcium signal, replicate 2":1.34e7,"Call":"inactive"}
{"target":"Cpr11B","DRSC id":"DRSC19859","calcium entry signal, replicate 1":4.27e7,"calcium entry signal, replicate 2":4.13e7,"resting calcium signal, replicate 1":1.80e7,"resting calcium signal, replicate 2":1.78e7,"Call":"inactive"}
{"target":"plh","DRSC id":"DRSC12294","calcium entry signal, replicate 1":2.92e7,"calcium entry signal, replicate 2":4.70e7,"resting calcium signal, replicate 1":1.42e7,"resting calcium signal, replicate 2":2.14e7,"Call":"inactive"}

Part of the list above in another layout:
| target | DRSC id | calcium entry signal, replicate 1 | calcium entry signal, replicate 2 | resting calcium signal, replicate 1 | resting calcium signal, replicate 2 | Call |
| --- | --- | --- | --- | --- | --- | --- |
| nAChRalpha4 | DRSC11929 | 2.34e7 | 2.75e7 | 1.34e7 | 1.34e7 | inactive |
| Cpr11B | DRSC19859 | 4.27e7 | 4.13e7 | 1.80e7 | 1.78e7 | inactive |
| plh | DRSC12294 | 2.92e7 | 4.70e7 | 1.42e7 | 2.14e7 | inactive |

More records:
{"target":"CG31560","DRSC id":"DRSC12136","calcium entry signal, replicate 1":3.47e7,"calcium entry signal, replicate 2":1.82e7,"resting calcium signal, replicate 1":1.56e7,"resting calcium signal, replicate 2":8.55e6,"Call":"inactive"}
{"target":"Osi22","DRSC id":"DRSC16442","calcium entry signal, replicate 1":2.88e7,"calcium entry signal, replicate 2":3.91e7,"resting calcium signal, replicate 1":1.42e7,"resting calcium signal, replicate 2":5.37e7,"Call":"inactive"}
{"target":"ath","DRSC id":"DRSC02788","calcium entry signal, replicate 1":3.59e7,"calcium entry signal, replicate 2":4.93e7,"resting calcium signal, replicate 1":1.66e7,"resting calcium signal, replicate 2":2.15e7,"Call":"inactive"}
{"target":"baf","DRSC id":"DRSC03051","calcium entry signal, replicate 1":4.27e7,"calcium entry signal, replicate 2":5.61e7,"resting calcium signal, replicate 1":1.99e7,"resting calcium signal, replicate 2":2.52e7,"Call":"inactive"}
{"target":"GstD8","DRSC id":"DRSC16689","calcium entry signal, replicate 1":3.29e7,"calcium entry signal, replicate 2":3.65e7,"resting calcium signal, replicate 1":1.60e7,"resting calcium signal, replicate 2":1.90e7,"Call":"inactive"}
{"target":"CG1513","DRSC id":"DRSC05194","calcium entry signal, replicate 1":3.14e7,"calcium entry signal, replicate 2":5.59e7,"resting calcium signal, replicate 1":1.55e7,"resting calcium signal, replicate 2":2.46e7,"Call":"inactive"}
{"target":"CG1513","DRSC id":"DRSC06553","calcium entry signal, replicate 1":4.88e7,"calcium entry signal, replicate 2":3.17e7,"resting calcium signal, replicate 1":2.30e7,"resting calcium signal, replicate 2":1.55e7,"Call":"inactive"}
{"target":"CG1513","DRSC id":"DRSC06554","calcium entry signal, replicate 1":3.38e7,"calcium entry signal, replicate 2":2.85e7,"resting calcium signal, replicate 1":1.58e7,"resting calcium signal, replicate 2":1.51e7,"Call":"inactive"}
